A short description of experiment [1]: Primary qHTS for inhibitors of nuclear receptor binding SET domain protein 2 (NSD2) in an isogenic RCH-ACV NSD2 p.E1099K mutant (9B) (AID 1645876). Note: nearly all actives have a fitted effect of over 70% in size. As to conditions: RCH-ACV NSD2 E1099K (9B) viability, CellTiter-Glo, 72 h. (qHTS replaces the single test concentration by a dilution series.)
The nature of experiment [2]: Primary qHTS for inhibitors of nuclear receptor binding SET domain protein 2 (NSD2) in an RCH-ACV wild type WT cells (2C) (AID 1645877). Note: nearly all actives have a fitted effect of over 70% in size. As to conditions: RCH-ACV (leukaemia line) NSD2 WT (2C) viability, CellTiter-Glo, 72 h.
Experiment [3] has as its target Glucocorticoid receptor (Homo sapiens) (UniProt P04150). Kind of experiment: GR-GFP Redistribution (AID 450;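 active = compounds whose dose series gives a full or clear partial fitted curve of increased nuclear translocation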). Particulars: U2OS GR-GFP nuclear translocation, laser cytometry, 2 h.
Experiment [4] has the same target. Kind of experiment: GR-EFC Redistribution (AID 451; calls by dose curve). Particulars: CHO-K1 GR-EFC translocation, beta-gal luminescence, 2 h. In a few lines: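 Translocation of GR-ED fusion to nuclear EA restores b-gal, read by luminescence after 1 h room-temperature detection. Engineered CHO-K1 biosensor cells, 1,000/well, exposed 2 h at 37 C to titrations up to 46 uM final.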

Protein sequences, listed by entry. Tags and fused reporters are not part of them. Lines headed by an entry give the natural chain unless they say otherwise; changes in a name come on top.
UniProt P04150: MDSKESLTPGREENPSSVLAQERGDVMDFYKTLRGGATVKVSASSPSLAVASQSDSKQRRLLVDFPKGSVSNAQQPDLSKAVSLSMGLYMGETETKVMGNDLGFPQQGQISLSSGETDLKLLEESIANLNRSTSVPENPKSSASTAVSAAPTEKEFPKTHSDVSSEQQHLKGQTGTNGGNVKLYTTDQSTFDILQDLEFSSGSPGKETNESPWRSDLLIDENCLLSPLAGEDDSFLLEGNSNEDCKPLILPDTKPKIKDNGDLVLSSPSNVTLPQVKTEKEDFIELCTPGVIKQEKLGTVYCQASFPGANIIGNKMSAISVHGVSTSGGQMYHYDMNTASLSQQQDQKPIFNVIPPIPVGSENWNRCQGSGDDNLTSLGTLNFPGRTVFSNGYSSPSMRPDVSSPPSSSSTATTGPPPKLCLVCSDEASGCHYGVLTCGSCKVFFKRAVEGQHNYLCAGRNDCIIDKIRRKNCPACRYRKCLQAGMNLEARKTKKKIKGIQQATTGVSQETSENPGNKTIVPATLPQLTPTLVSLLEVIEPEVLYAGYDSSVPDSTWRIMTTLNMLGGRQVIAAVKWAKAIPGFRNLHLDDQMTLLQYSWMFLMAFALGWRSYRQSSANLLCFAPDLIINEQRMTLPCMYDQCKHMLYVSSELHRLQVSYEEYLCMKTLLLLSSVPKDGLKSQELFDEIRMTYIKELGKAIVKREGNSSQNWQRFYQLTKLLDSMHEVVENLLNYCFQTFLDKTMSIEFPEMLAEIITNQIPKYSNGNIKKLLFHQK

Molecules are shown by their SMILES. Shown are results outside the selection of hits, which stands elsewhere. Results filed as inconclusive are left out. Calls of active or inactive are those of the source. Unless noted, calls come from the whole dose curve; as a rule, active = well fitted curve in the direction sought with a large enough effect; inconclusive = small, poorly fitted or top-dose-only effect, or another doubt; inactive = no such curve, though single readings can be large; an effect the other way counts as inactive or inconclusive.
Potency is the fitted concentration of half-maximal effect.

Regarding `CN1CC[C@]23c4c5ccc(O)c4O[C@H]2[C@@H](O)C=C[C@H]3[C@H]1C5`, the results for the Potency in experiment [1] and in experiment [2] were active: 42.8 µM and active: 21.5 µM, respectively.

Turning to `CN[C@@H](C)[C@H]1CC[C@@H](N)[C@@H](O[C@@H]2[C@@H](O)[C@@H](O[C@H]3OC[C@@](C)(O)[C@@H](NC)[C@@H]3O)[C@H](N)C[C@@H]2N)O1` (tested in a mixture with another compound), the Potency in experiment [3] and in experiment [4] was inactive: > 20.6 µM throughout.
